Laboratory results from PMC3536697.
Results are given in words; binding and its absence hold for the method and conditions named. In cells and extracts the contact can be indirect. Some binding calls cover weakened binding; strength is not graded here. Where a sequence is shown, tags or fusion partners need not be part of it.

Biological target: HIS6-SUMO-CaStn1N (Candida albicans Stn1, amino acid 1-239), wild type (Candida albicans)
Test: pull-down; C. albicans HIS6-SUMO-CaStn1N and GST-CaTen1 made in E. coli, complex isolated by tandem affinity chromatography as for the C. glabrata Stn1-Ten1 complex; SDS-PAGE and Coomassie

- binding: binds
B1: GST-CaTen1 fusion protein (Candida albicans Ten1) (protein, UniProt Q5A873 1-126)
chain: MTKLILNPGDLSSIFPDISISNPQRIRILCQVIKYIPNESCLIIDKIPTVAESSTNKESLVKIDVFDILEDILSIEIINKGTIINIDGYYDGEKIQPIDIYEINGINFTIENIEILNQLNQMKSLT
